# Drug screen on melanoma cell lines: cell count

Values as published with doi:10.1371/journal.pone.0140310, rounded.

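Human melanoma cell lines in 1,536-well plates were treated with two drugs together for 72 h, then fixed, stained and imaged. Each value is the count of nuclei relative to DMSO-treated wells, in %, so that 100 equals the control. Concentrations were fixed for each drug; these are the lower of two levels, a fifth of the higher. The file gives one value for each pair and line, without errors, so small differences may be noise.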 This is part of the screen, not chosen by result.

Every entry is a combination with decitabine at 0.1 µM: Nc1ncn([C@H]2C[C@H](O)[C@@H](CO)O2)c(=O)n1

Drug key:
fingolimod, 2 µM: CCCCCCCCc1ccc(CCC(N)(CO)CO)cc1
SU6656, 0.4 µM: CN(C)S(=O)(=O)c1ccc2c(c1)/C(=C/c1cc3c([nH]1)CCCC3)C(=O)N2
erlotinib, 0.8 µM: C#Cc1cccc(Nc2ncnc3cc(OCCOC)c(OCCOC)cc23)c1
AZD7762, 0.02 µM: NC(=O)Nc1cc(-c2cccc(F)c2)sc1C(=O)N[C@H]1CCCNC1
sorafenib, 0.4 µM: CNC(=O)c1cc(Oc2ccc(NC(=O)Nc3ccc(Cl)c(C(F)(F)F)c3)cc2)ccn1
MK-2206, 0.4 µM: NC1(c2ccc(-c3nc4ccn5c(=O)[nH]nc5c4cc3-c3ccccc3)cc2)CCC1
enzastaurin, 0.8 µM: Cn1cc(C2=C(c3cn(C4CCN(Cc5ccccn5)CC4)c4ccccc34)C(=O)NC2=O)c2ccccc21

| Cell line | AZD7762 | sorafenib | erlotinib | fingolimod | SU6656 | enzastaurin | MK-2206 |
|---|---|---|---|---|---|---|---|
| LB2518-MEL | 93.4 | 92.4 | 75.1 | 94.3 | 85.1 | 87.9 | 86.8 |
| A375 | 62.3 | 97.5 | 87.8 | 84.8 | 97.9 | 94.3 | 76.4 |
| A101D | 75.7 | 88.3 | 89.6 | 49.9 | 74.4 | 96.5 | 82.1 |
| COLO 792 | 95.1 | 117 | 80.8 | 71.3 | 66.5 | 97.2 | 62.7 |
| COLO 800 | 74.2 | 79.2 | 61.4 | 140 | 94.6 | 57.4 | 62.9 |
| COLO 829 | 88.0 | 85.4 | 69.1 | 51.1 | 78.5 | 96.0 | 67.8 |
| IST-MEL1 | 106 | 83.0 | 93.4 | 67.5 | 80.1 | 90.1 | 77.4 |
| G-361 | 105 | 90.0 | 90.8 | 96.0 | 76.0 | 96.9 | 82.9 |
| C32 | 89.8 | 95.9 | 116 | 108 | 96.6 | 117 | 78.6 |
| IPC-298 | 77.8 | 66.7 | 62.8 | 70.2 | 67.6 | 91.9 | 62.4 |
| A2058 | 105 | 95.1 | 85.5 | 81.3 | 77.1 | 79.9 | 90.9 |
| MEL-HO | 82.1 | 94.2 | 89.1 | 79.3 | 77.7 | 95.5 | 75.1 |
| LOX IMVI | 76.2 | 93.9 | 83.2 | 106 | 112 | 150 | 46.4 |